Source: the supplement of paper PMC10338343
± gives the standard deviation. The list shows a part of the results. Many of these values have a large error.

Tested on: EfPiwi piRISC loaded with L1MC piRNA (26 nt)
Experiment: pre-steady-state target cleavage rate (min^-1); guide: L1MC piRNA 5'p-UAACUAAAUACUAUGCAAGCUGUAGG; MIWI and MILI are mouse PIWI proteins and EfPiwi is from a freshwater sponge; tags in brackets are library labels; higher = faster piRNA-guided slicing of the target
In short: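 At 33 °C in HEPES–potassium acetate buffer, a transcribed, DNA-blocked target RNA library […] was exposed for 0–8 or 0–960 min to 1 nM active affinity-purified piRISC carrying a single synthetic guide, with or without 500 nM GTSF1 partner protein. Uncleaved targets were sequenced and normalised to depth and to weakly complementary targets. With three trials pooled and k3 capped at 0.0001 min^-1, a burst-and-steady-state fit produced the pre-steady-state cleavage rate.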

[1] = auxiliary factor: 500 nM Ephydatia muelleri Gtsf1
[2] = auxiliary factor: none (no Gtsf1)

| Sequence | pre-steady-state target cleavage rate [1] | pre-steady-state target cleavage rate [2] |
| --- | --- | --- |
| UCCUGGAUCAGCUAGCAUAGUAUUUAGUUA | 0.0313 ± 0.009 |  |
| UCCUGGAUCAGCUAGCAUUGUAUUUAGUUA | 0.00245 ± 0.0025 |  |
| UCCUCCUUCACCUUGCAUAGUAUUUAGUUA | 0.0605 ± 0.021 |  |
| UCCUGGAACAGCUUGCACAGUAUUUAGUUA | 0.0589 ± 0.015 |  |
| UCCUGGAUCAGCAUGCAUAGUAUUUAGAAA | 0.00356 ± 0.0021 |  |
| UCCUCCUACAGCUUGGAUUGUAUUUAGUUA | 0.0225 ± 0.0082 |  |
| UCCUGGUAGUCCUUGCAUAGUAUUUAGUAA | 0.00627 ± 0.0035 |  |
| UCCUGGAUGUCGAAGCAUAGUAUUUAGCUA | 0.000221 ± 0.019 |  |
| UCCUGGAUCAGCUUAGCAUAGUAUUUAGUUA | 0.0874 ± 0.019 |  |
| UCCUGGAUGUCGAUGCAUUGUAUUUAGUAA | 0.000249 ± 0.012 |  |
| UCCUGGAUGUCGAACGAUUGUAUUUAGUUA | 0.000117 ± 0.045 |  |
| UCCUGGAUGUCGAACGUAUCUAUCUUAGUUA |  | < 0.0001 |
| UCCUGCUACAGCUUGCGUAGUAUUUAGUUA | 0.0375 ± 0.011 |  |
| UCCUGGAUGAGCUUGCAUUCAUAAAUCAAA [g13:g21:cont:t1A] |  | 0.000217 ± 0.031 |
| UCCUGGAUGUGCUUGCAUACAUAAAUCAAA [g12:g20:cont:t1A] | 0.000151 ± 0.024 |  |
| UCCUGGUACAGCUUGCACAGUAUUUAGUUA |  | 0.00179 ± 0.0065 |
| UCCUGGAACAGCUUGCAAUCUAUUUAGUUA | 0.00116 ± 0.0049 |  |
| UCCUGGAACAGCUUGCAUUGUAUUUAGUUA | 0.00926 ± 0.0026 |  |
| UCCUCCUACAGCUUGCAUAGUACUUAGUUA | 0.013 ± 0.0053 |  |
| UCCUGCUACAGGUUGCAUAGUAUUUAGAUA | 0.002 ± 0.0022 |  |
| UCCUCCUACAGCUUGGAUAGUAUUUACUUA | 0.00254 ± 0.0019 |  |
| UCCUGGUACGAGCUUGCAUAGUAUUUAGUUA |  | 0.000315 ± 0.062 |
| UCCUGGAUGUCGAACGUUACUAUUAAGUUA | 0.000256 ± 0.018 |  |
